# Test results reported in publication PMC6567251.
# Amino acid sequences for entries named in this document (tags omitted). Residues count along the entry.
# UniProt P36895, residues 24-532: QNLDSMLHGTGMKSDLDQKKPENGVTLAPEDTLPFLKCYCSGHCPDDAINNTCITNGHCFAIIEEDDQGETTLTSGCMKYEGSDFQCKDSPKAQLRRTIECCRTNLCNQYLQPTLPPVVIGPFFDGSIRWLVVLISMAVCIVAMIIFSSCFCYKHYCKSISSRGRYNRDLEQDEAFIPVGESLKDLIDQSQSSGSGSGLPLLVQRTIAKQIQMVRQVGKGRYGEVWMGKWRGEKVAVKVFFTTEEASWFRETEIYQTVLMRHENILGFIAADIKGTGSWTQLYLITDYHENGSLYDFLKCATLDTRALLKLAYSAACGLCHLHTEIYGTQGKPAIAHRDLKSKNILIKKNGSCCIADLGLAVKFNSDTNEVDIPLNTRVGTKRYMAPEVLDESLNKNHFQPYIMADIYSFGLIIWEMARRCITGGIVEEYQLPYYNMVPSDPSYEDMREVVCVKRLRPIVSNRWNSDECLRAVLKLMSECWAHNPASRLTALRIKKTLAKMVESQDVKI
# UniProt P67871: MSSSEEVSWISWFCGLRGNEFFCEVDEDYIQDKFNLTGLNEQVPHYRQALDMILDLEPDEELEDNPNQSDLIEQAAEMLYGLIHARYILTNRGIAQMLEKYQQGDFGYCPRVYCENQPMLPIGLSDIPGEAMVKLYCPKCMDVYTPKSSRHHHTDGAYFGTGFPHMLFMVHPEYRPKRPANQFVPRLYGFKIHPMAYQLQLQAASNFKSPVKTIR
# These are yes or no findings as the source states them, for the method shown. Binding seen in cells or lysates may run through a third protein. Some results given as binding are weak or reduced against the parent protein; the word gives no strength.
# Key:
# [1] = target: bone morphogenetic protein receptor type IA (mouse (endogenous in C2C12)) (UniProt P36895); assay: condition: only cells stimulated with 100 nM of CK2.3 for 18 h; co-IP; as a1, but C2C12 cells stimulated with 100 nM CK2.3 for 18 h before lysis; Western blot for CK2β
# [2] = target: bone morphogenetic protein receptor type IA (mouse (endogenous in C2C12)) (UniProt P36895); assay: co-IP; endogenous BMPRIA immunoprecipitated (rabbit polyclonal antibody on Protein G magnetic beads, overnight at 4 °C, NP-40 lysis buffer) from lysates of C2C12 cells left unstimulated or stimulated with 100 nM CK2.3 for 6 h or 12 h; Western blot for CK2β
substance,measurement,setting,value
Protein Kinase 2- regulatory subunit β (from UniProt P67871 1-215),binding,[1],no binding
same,binding,[2],binds
